The list shows a part of the results. Shown are side measurements of this screen, not its main read-out; they come without a call. Most of these compounds were active or inconclusive in the main read-out, so they are no random draw. Words in brackets tell the shape of the fitted curve; partial curves, single points and poor fits give uncertain potencies.
Experiment: qHTS Assay for Lipid Storage Modulators in Drosophila S3 Cells;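 on cell number change: cells counted by Cell Tracker Red CMTPX staining in the red channel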
Conditions: BODIPY lipid droplet fluorescence, 18-24 h; for cell number change: measured here: cell count max response, cells fed with added oleic acid
Outline: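 Drosophila S3 cells got compounds at several concentrations plus oleic acid (400 uM solution). Laser-scanning cytometry with 488 nm excitation read lipid droplets at 500-530 nm and cells at 575-640 nm. Percent activity was relative to 20 uM Triacsin C.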

[1] = measured here: lipid fluorescence (Fed channel) AC50, cells fed with added oleic acid
[2] = measured here: cell number channel AC50, cells fed with added oleic acid

Structure (SMILES) | AC50 [1] | cell number change [%] | AC50 [2]
O=C(NC1CCCCC1)C(=S)N1CCCC1 | 8.2 µM [rising, partial curve] |  | 
O=C(NCCC1=CCCCC1)c1cnccn1 | 1.3 µM [rising, partial curve, poor fit] | -4.23 | 
O=C(CC(C(=O)O)c1ccccc1)Nc1ccccc1 (centres undefined) | 0.00517 µM [falling, full curve, poor fit] | -22.3 | 
CCOC(=O)c1sc(NC(=O)CN2CCN(c3ccccc3)CC2)nc1C | 29.1 µM [rising, single point] | -10.7 | 
COc1ccc(/C=C2\SC(=O)N(CC(=O)NNC(=O)c3ccccc3O)C2=O)cc1 |  | -8.15 | 
CSc1nccc(N/N=C/c2ccccc2)n1 | 8.2 µM [falling, single point] | 8.38 | 
COc1ccccc1N1CCN(C(=O)c2cc3cc(Br)ccc3oc2=O)CC1 | 6.51 µM [rising, single point] | 14.1 | 
c1ccc(Nc2ncnc3c2oc2ccccc23)cc1 | 32.6 µM [falling, single point] |  | 0.58 µM [falling, full curve]
CCOC(=O)CSc1snnc1-c1ccccc1 | 0.164 µM [falling, full curve, poor fit] | -17.6 | 
Cc1cc(C)c2nc(N)sc2c1 | 10.3 µM [rising, single point] | 42.9 | 29.1 µM [rising, single point]
COc1ccc(CC(=O)NC(C)c2nnc(SCC(=O)Nc3nc(C)cs3)n2C)cc1 (centres undefined) | 6.51 µM [rising, single point] | -3.71 | 
CCCCn1nnnc1SCC(=O)c1cc(Cl)ccc1OC |  | 31.8 | 29.1 µM [rising, single point]
CCOC(=O)c1nc(NNC(=O)c2ccc([N+](=O)[O-])cc2)sc1C |  | -50.8 | 2.91 µM [falling, partial curve, poor fit]
O=C(COC(=O)c1ccc(O)cc1O)Nc1ccc(Cl)cn1 | 7.31 µM [rising, partial curve] | 13.5 | 
O=C(Oc1cccc(N2C(=O)CCC2=O)c1)C1CC(=O)N(c2ccc(F)cc2)C1 (centres undefined) |  | -2.28 | 
O=C(CSc1ccc2ccccc2c1)NCCCN1CCCC1=O | 10.3 µM [falling, single point] | -13.2 | 
CC(=O)Nc1ccc(NC(=O)C2CCCN2C(=O)NC2CCCCC2)cc1 (centres undefined) |  | 11.8 | 
CNCc1ccc(OCc2ccccc2)c(OC)c1 | 23.1 µM [falling, partial curve] | -83.8 | 16.4 µM [falling, partial curve, poor fit]

Two entries from above in another layout.
Structure (SMILES),AC50 [1],cell number change [%],AC50 [2]
O=C(NC1CCCCC1)C(=S)N1CCCC1,"8.2 µM [rising, partial curve]",,
CCOC(=O)c1nc(NNC(=O)c2ccc([N+](=O)[O-])cc2)sc1C,,-50.8,"2.91 µM [falling, partial curve, poor fit]"

— PubChem BioAssay AID2685 (National Center for Advancing Translational Sciences (NCATS), 2010)
